{"source": "paper PMC7819943", "about": "“Rice protein-binding microarrays: a tool to detect cis-acting elements near promoter regions in rice”", "note": "The other results are listed elsewhere or left out."}
{"biological_target": "T1, OsSMF1 (Oryza sativa, UniProt Q6ZLB0 1-436)", "T1 sequence": "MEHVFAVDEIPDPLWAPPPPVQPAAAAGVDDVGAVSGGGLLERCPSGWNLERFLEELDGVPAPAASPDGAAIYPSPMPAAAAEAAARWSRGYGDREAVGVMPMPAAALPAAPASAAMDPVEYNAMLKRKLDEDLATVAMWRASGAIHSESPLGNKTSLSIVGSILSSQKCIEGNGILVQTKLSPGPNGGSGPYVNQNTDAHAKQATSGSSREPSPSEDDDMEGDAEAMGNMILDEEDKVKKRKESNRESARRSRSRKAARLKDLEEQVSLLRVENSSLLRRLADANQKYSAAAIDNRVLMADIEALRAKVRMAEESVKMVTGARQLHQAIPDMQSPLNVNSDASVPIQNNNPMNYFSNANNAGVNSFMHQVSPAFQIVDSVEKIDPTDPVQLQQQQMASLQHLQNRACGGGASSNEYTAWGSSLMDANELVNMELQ", "experiment": "protein-binding microarray (RPBM); PBS, 2% BSA, 51.3 ng/ul salmon testes DNA, 50 uM zinc acetate, 200 nM TF, 25 C, 1 h; high values mean tight binding", "conditions": "protein: recombinant; tags: N-terminal polyhistidine and DsRed monomer fusion (pET32a); chain copies: 2; label: CyDye5-dUTP incorporated in the synthesized complementary strand; 3' TTTTT single-stranded linker to array surface; dsDNA, one strand shown", "in_short": "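In PBS with 2% BSA, salmon testes DNA and 50 µM zinc acetate, 200 nM protein was incubated on a custom Agilent array at 25 °C for 1 h and then washed off. The array had been made double-stranded by primer extension with Cy5-dUTP and blocked with 2% BSA. The proteins were transcription factors fused N-terminally to polyhistidine and DsRed, expressed in E. coli BL21-CodonPlus and purified on Ni–NTA. The binding signal is per-feature fluorescence intensity (arbitrary units) from an Axon 4000B scanner.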"}
{"sequence": "TGAGCCCCGCCGTGGCACCGCGTGTCGACCTCGTGGTGCTCGGAGTCACCTAGTGCAG", "binding signal": "5800 fluorescence intensity (a.u.)"}
{"sequence": "GTACTACTCCCTCCGTTTCTCCCTCCGTTTCAAAATGTTTCGGAGTCACCTAGTGCAG", "binding signal": "3220 fluorescence intensity (a.u.)"}
{"sequence": "TAATGAATCTAGTCAGATATACGCATCTAGATTTATTAACCGGAGTCACCTAGTGCAG", "binding signal": "4390 fluorescence intensity (a.u.)"}
{"sequence": "CGCACGTACACACCACACCGGCCTACGTGGGTGTATCCTACGGAGTCACCTAGTGCAG", "binding signal": "5500 fluorescence intensity (a.u.)"}
{"sequence": "AGCTCGCGGATTTTGGCTGCCGCGTGTATAAATGCTCCCGCGGAGTCACCTAGTGCAG", "binding signal": "6120 fluorescence intensity (a.u.)"}
{"sequence": "TGAGACTAGCTAAGTACACATCCCCAGCCTAGCCGAGTCACGGAGTCACCTAGTGCAG", "binding signal": "3570 fluorescence intensity (a.u.)"}
{"sequence": "CCGGCCAACTAAAATGGGCCGCACGTCAGCCGCACAATTACGGAGTCACCTAGTGCAG", "binding signal": "5670 fluorescence intensity (a.u.)"}
{"sequence": "CCCCACATGCTGACATGTCCCCACTCGATCGTCGATCCCCCGGAGTCACCTAGTGCAG", "binding signal": "8720 fluorescence intensity (a.u.)"}
{"sequence": "TAATTCGGTTCCCTGACACGGCTGTCGCCGCGGAAACCGTCGGAGTCACCTAGTGCAG", "binding signal": "3150 fluorescence intensity (a.u.)"}
{"sequence": "ACAAACTCTATCCCTACGTCATATCTGAAGATTCTTTTCTCGGAGTCACCTAGTGCAG", "binding signal": "4480 fluorescence intensity (a.u.)"}
{"sequence": "GGACTCGGACCAGTCAGGCCCACAATTGTTGCGCTCAGCCCGGAGTCACCTAGTGCAG", "binding signal": "31700 fluorescence intensity (a.u.)"}
{"sequence": "CTGCGCATGCCGGCTCTAATGATGTGACAATGCAATGGCACGGAGTCACCTAGTGCAG", "binding signal": "4300 fluorescence intensity (a.u.)"}
{"sequence": "TGCTCTAGTACACCTCATAATTACGTTAGCCAACTTTAGCCGGAGTCACCTAGTGCAG", "binding signal": "5540 fluorescence intensity (a.u.)"}
{"sequence": "GAAATTCAAATTCAAATTATTGAAACCGAGTCATATAGCACGGAGTCACCTAGTGCAG", "binding signal": "3190 fluorescence intensity (a.u.)"}
{"sequence": "TCCACCTTCTCTCATATCACCACAGTCATCTTGCCAAGTGCGGAGTCACCTAGTGCAG", "binding signal": "4740 fluorescence intensity (a.u.)"}
{"sequence": "GCGTGCCAGCAAGTATTATGCTGGCAGCTTCCAACAGGAACGGAGTCACCTAGTGCAG", "binding signal": "3760 fluorescence intensity (a.u.)"}
{"sequence": "TGATTAATTAACCGAAAAGTGTGTAAAGCAAATGTTTTGGCGGAGTCACCTAGTGCAG", "binding signal": "27100 fluorescence intensity (a.u.)"}
{"sequence": "ATGCACGCATGACGCCATCGTTGCTCGCGAGTGTGCTCACCGGAGTCACCTAGTGCAG", "binding signal": "4450 fluorescence intensity (a.u.)"}
{"sequence": "CGGCTAGAGGGAGTATTACGTCACATCAAAGGGTGGAAAACGGAGTCACCTAGTGCAG", "binding signal": "6460 fluorescence intensity (a.u.)"}
{"sequence": "AGGAGGAGGAGGAGGAGGAGGGGATTGTGACTTGTGATCTCGGAGTCACCTAGTGCAG", "binding signal": "3890 fluorescence intensity (a.u.)"}
{"sequence": "AGCAGTTTTGAAGTGTGACGTAAGCATGGAAAACAAGAACCGGAGTCACCTAGTGCAG", "binding signal": "5670 fluorescence intensity (a.u.)"}
{"sequence": "GGAGGAAGAGAGACCTTGCTGACGTGGCACCTGACATGTGCGGAGTCACCTAGTGCAG", "binding signal": "7440 fluorescence intensity (a.u.)"}
{"sequence": "TAGTTTTATTGCAATCTGACGTATCCCCAAGCAGGTATCACGGAGTCACCTAGTGCAG", "binding signal": "7770 fluorescence intensity (a.u.)"}
{"sequence": "TCTCGCCATTTCCGCGGCGCCACCGCACTCCGCCACTCTCCGGAGTCACCTAGTGCAG", "binding signal": "3180 fluorescence intensity (a.u.)"}
{"sequence": "CTGGTGCTGACGTGGAAGGGGCACGCCGCCGTGTTCACCGCGGAGTCACCTAGTGCAG", "binding signal": "16300 fluorescence intensity (a.u.)"}
{"sequence": "AACACACAAGCAGGCGACGTGGCAGCCAGAGAGGGGCTAACGGAGTCACCTAGTGCAG", "binding signal": "6280 fluorescence intensity (a.u.)"}
{"sequence": "GTACAAGACTTGGTGCTCACGTATTATGTTTGGTACTATTCGGAGTCACCTAGTGCAG", "binding signal": "3300 fluorescence intensity (a.u.)"}
{"sequence": "GCTGACATGTGGGCCCACCCTTCAGAGAGAACACACTGGCCGGAGTCACCTAGTGCAG", "binding signal": "24500 fluorescence intensity (a.u.)"}
{"sequence": "TGCACACCCAGGTTGAAGACGACAATGACGAGCTCGGGCGCGGAGTCACCTAGTGCAG", "binding signal": "3330 fluorescence intensity (a.u.)"}
{"sequence": "TTGGGCCGGGCCCATTACGGCTACATAGGCCTCGACGACCCGGAGTCACCTAGTGCAG", "binding signal": "5640 fluorescence intensity (a.u.)"}
{"sequence": "TTGTCTTGCGTTGGCGTCAGCACCTCCTTCACCGCGGCTTCGGAGTCACCTAGTGCAG", "binding signal": "5660 fluorescence intensity (a.u.)"}
{"sequence": "AAATTTTAGTGGAGTTAAATTTTAACTCATGGTGACGTGGCGGAGTCACCTAGTGCAG", "binding signal": "37100 fluorescence intensity (a.u.)"}
{"sequence": "CCATTTCCCGTCGTCTCCACCTCACCACCTCTCTAAACAACGGAGTCACCTAGTGCAG", "binding signal": "4650 fluorescence intensity (a.u.)"}
{"sequence": "GCGAAGGAGCTTATCCGCTAAGACGTGGCTGCATCTCTCCCGGAGTCACCTAGTGCAG", "binding signal": "4310 fluorescence intensity (a.u.)"}
{"sequence": "TTAACTTTTATGTTTGTAGAGTGATATATCACATATTAATCGGAGTCACCTAGTGCAG", "binding signal": "20900 fluorescence intensity (a.u.)"}
{"sequence": "TGTTTTACCTTGAGTTATCTGATGTTGACTGGTGTGTACTCGGAGTCACCTAGTGCAG", "binding signal": "3560 fluorescence intensity (a.u.)"}
{"sequence": "TCCCGCCCGCCCGTGACGCGTACAGCCGTACACCCATTCCCGGAGTCACCTAGTGCAG", "binding signal": "8830 fluorescence intensity (a.u.)"}
{"sequence": "CTAACTCTTTGGGCTGGGCCACGTCAAGATCTGAGCAATTCGGAGTCACCTAGTGCAG", "binding signal": "6710 fluorescence intensity (a.u.)"}
{"sequence": "CGAGATATAATTGCCATGTCATTGCCACGTCAATGTCACGCGGAGTCACCTAGTGCAG", "binding signal": "49600 fluorescence intensity (a.u.)"}
{"sequence": "CGCGCGCATGGGCAACATACCTCGGAGCCGATCGCGTCCGCGGAGTCACCTAGTGCAG", "binding signal": "5880 fluorescence intensity (a.u.)"}
{"sequence": "ATGTATGTATGTATGTGTGTGTGTGTATATATATATATATCGGAGTCACCTAGTGCAG", "binding signal": "4560 fluorescence intensity (a.u.)"}
{"sequence": "GGGTTCATACTGAATTTACATTTCCTGTTGCACACGCATGCGGAGTCACCTAGTGCAG", "binding signal": "3190 fluorescence intensity (a.u.)"}
